From patent publication US7070969 (UNIVERSITY OF QUEENSLAND, dated 2006) come the findings set out here.

Protein sequences, listed by entry. Tags and fused reporters are not part of them. Residues count along the entry.
UniProt P00747, residues 97-810: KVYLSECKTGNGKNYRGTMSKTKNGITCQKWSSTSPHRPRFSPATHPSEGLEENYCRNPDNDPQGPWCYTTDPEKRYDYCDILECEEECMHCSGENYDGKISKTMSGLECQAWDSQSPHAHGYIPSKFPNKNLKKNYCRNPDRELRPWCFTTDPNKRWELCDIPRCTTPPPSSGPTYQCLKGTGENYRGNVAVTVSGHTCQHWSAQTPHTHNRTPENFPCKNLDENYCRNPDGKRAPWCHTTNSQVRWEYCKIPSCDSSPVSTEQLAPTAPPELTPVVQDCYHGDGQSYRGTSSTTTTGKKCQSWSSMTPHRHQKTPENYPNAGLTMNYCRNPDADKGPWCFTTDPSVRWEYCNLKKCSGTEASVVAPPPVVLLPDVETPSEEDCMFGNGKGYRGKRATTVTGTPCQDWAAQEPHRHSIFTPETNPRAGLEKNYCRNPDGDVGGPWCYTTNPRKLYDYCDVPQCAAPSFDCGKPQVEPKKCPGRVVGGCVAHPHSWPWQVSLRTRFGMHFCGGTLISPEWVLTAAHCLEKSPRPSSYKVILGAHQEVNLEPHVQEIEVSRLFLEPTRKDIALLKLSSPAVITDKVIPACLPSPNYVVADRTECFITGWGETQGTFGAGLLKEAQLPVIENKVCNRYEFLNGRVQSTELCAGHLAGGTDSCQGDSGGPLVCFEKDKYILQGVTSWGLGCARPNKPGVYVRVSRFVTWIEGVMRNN

Numbering of substitutions follows the chain as printed. No constants are given. Whether binding was seen depends on the method and setting. Some results given as binding are weak or reduced against the parent protein; the word gives no strength.

Assay [1] addresses Human plasmin (human) (UniProt P00747). The assay is described as follows: plasmin inhibition kinetics.
Assay [2] shares this target. Description: enzyme specificity; method not described.

B1: Textilinin 1 (other)
chain: KDRPDFCELPADTGPCRVRFPSFYYNPDEKKCLEFIYGGCEGNANNFITKEECESTCAA
notes: also called Txln 1
On to B1, for which the binding entry in assay [1] and in assay [2] was “binds” each time.

B2: Textilinin 2 (other)
chain: B1 chain with D5E, F6L, A11P, K30Q
notes: also called Txln 2
B2: the binding entry in assay [1] and in assay [2] was “binds” each time.
